# From PubChem BioAssay AID1347423 (Functional Genomics Laboratory (NCATS/FGL), 2020)
# The campaign covered roughly 52,000 sequences. About 210 (0.4%) were called active.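 The calls were made as follows: active = gene whose silencing raises cell survival under the drug, median off-target-corrected z-score across its silencing RNAs 2 or more; inactive = the rest.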 Some of the results follow.
# Experiment: Resistance to Poly (ADP-Ribose) Polymerase inhibitor: Gene Identification via Genome-wide siRNA Screen
# Settings: mouse BRCA2 R2336H ES cells, olaparib, CellTiter-Glo viability; stronger effect = higher value
# Method in brief: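 Genome-wide siRNA screen (3 siRNAs/gene, 20 nM) in mouse ES cells carrying hypomorphic BRCA2 R2336H; olaparib 500 nM added 48 h post-transfection, CellTiter-Glo viability 72 h later. Normalized to plate-median negative control; MAD z-scores, gene median, seed-adjusted.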
row,Sequence,z-score
1,GCCGUCAGACAAGGAGGAATT against Baiap1,inactive: 0.647
2,GGAAAUGUUGAAUCUUGCUTT against A930031D07Rik,inactive: 0.774
3,GCCAACUGAAGAUCCGUGUTT against Pgm5,inactive: -0.481
4,GGUGGUUGUAAGUAAGCUGTT against Lgals3,inactive: -2.21
5,GGGAAGACAACAAUUCUAUTT against Arf1,inactive: 0.522
6,GGAGUUCUGCAUCUACAACTT against Syngr1,inactive: 0.549
7,GAUAACCAUGUUCUUUGGATT against Defcr-rs2,inactive: 0.451
8,GGGUGCUAAAUCUUUUUGATT against Ccnf,inactive: -0.453
9,GGGACUAGAUCAUUUUCUGTT against D630028G08Rik,inactive: 1.67
10,GGCAUUGGUUCCUACAAGATT against Gm773,inactive: 0.502
11,CCCUGUCACAACAUUCUCATT against Olfr1426,inactive: -0.363
12,GGAAUAUGUCACCAACAAGTT against Akap8l,inactive: 2.95
13,GGAGUUACAUGGCUCUUGATT against Gpr44,inactive: -0.555
14,GCUAUUUAGUUAGUUGUGUTT against Acbd3,inactive: 0.191
15,GCCAACAAGUUUAUCACUATT against Hoxb13,inactive: -0.492
16,GGAGGAAAAGUCUUGUAGUTT against Armcx1,inactive: -0.548
17,GGAGAAUAUUCUCUGUGGATT against D6Ertd32e,inactive: -1.08
18,GCAUCCAUGCUAUGGAACCTT against LOC434768,inactive: 0.997
19,GGAAUACUUAUAGCUGACUTT against Rdhe2,inactive: 0.32
20,CUCACUUCCCUAUCCAGAGTT against BC026645,inactive: -1.3
21,GCUAAUUGUUCACUAAAGGTT against 1700029H14Rik,inactive: 0.0282
22,GAUGGACAAUCUCAUGGAUTT against Pcp2,inactive: 0.793
23,GGCGAUCAUAAACAGCAAUTT against Smyd3,inactive: 1.85
24,GCACAGCUAACGGAAAACATT against H2-Ke2,inactive: -0.0245
25,GUUGGCCAGAAUUCUGAAATT against Lzp-s,inactive: -0.145
26,CCAAGCAUUACAGAAACCATT against Olfr1148,inactive: -0.7

row,Sequence,z-score
1,GGCUUGCCAUCGUAAAUCCTT against 1700019M22Rik,inactive: -0.469
2,GCAUUGUAAAGUUUGUACATT against Dnaja2,inactive: 0.571
3,GGCCGAAAAUUUGUUUGUATT against Pcdhga9,inactive: 1.18
4,CCCUGUGACUCCAAAAUGATT against Dbh,inactive: 0.352
5,GGGCAUAUUCACUUUAAAATT against 1200002N14Rik,inactive: -0.264
6,GGCCAGGAAAGAUUUCGAATT against Rab1,inactive: -1.3
7,CGGCAGAGCCAGAUAUGAUTT against Zfp98,inactive: -0.884
8,CCCUUUGAACUUUCCACACTT against A430060F13Rik,inactive: -0.202
9,GGGCCUUUAGUCCUCAAAGTT against 1810042K04Rik,inactive: 0.6
10,GGCUUCGUAGCUUUACAAATT against Abca6,inactive: 0.0706
11,GUAAUUCACAGCCUCUCCGTT against Pitx3,inactive: -0.548
12,GGUAUCUUCAAGUACAUGATT against BC011426,inactive: 0.138
13,CGCACACGAUGUGGAAAUGTT against Ptger1,inactive: 0.509
14,GGAGUUAAUCAAAGCUUUGTT against 2610304G08Rik,inactive: -0.906
15,GCUUAACGAGCCUUAGAAATT against 4632412E09Rik,inactive: -1.48
16,GGGCAGUGAGAAGAGAUUCTT against H2-Q1,inactive: 0.166
17,CCAACAAUGUUUAAAGGAUTT against Olfr476,inactive: -0.279
18,GGCUUCUCUCUAUGUAUUCTT against Tas2r116,inactive: -0.22
19,CGGCAUCAUAUUGUGCGAATT against Cnn3,inactive: -0.119
20,GCAGAGGGCAACUCGUAAGTT against LOC547347,inactive: 1.92
21,CCUUGUCAAUCAUUAUCUGTT against Olfr923,inactive: 1.22
22,GCUCCAAUCGGUGAUGUCUTT against Pla2g7,inactive: -3.63
23,GGAUCCCUCAUUCGUCCCUTT against D430018E03Rik,inactive: -1.38
24,GGAUGUUUUAACUUGGAAATT against Sema5a,inactive: -0.0973
25,GGUCACUUUAGAUUUUGAATT against Stard13,inactive: -0.935
26,CGUGAUGUGGGAAAUGGCATT against Avpr2,inactive: 1.4

row,Sequence,z-score
1,GGAGUUCUUCAUUUACCGATT against E330009P21Rik,inactive: -0.144
2,GGAAAAGGAAAGCUUUAGUTT against Fut4,inactive: 0.511
3,GGUGAUCCUCAUCAUCAGUTT against 2400010G15Rik,active: 2.76
4,CCGGCUGUACAAAGAGAAUTT against Rnf34,inactive: -0.365
5,GCCCAACCCGAUUUGCAGATT against Cyp4a10,inactive: -0.83
6,GGGUGGGUUUGAGGUGUCUTT against Set,inactive: 0.395
7,GGAACUUCGUCAUCAACAUTT against 1110025I09Rik,inactive: 0.662
8,CCCAGCACAAGUGUAAGAUTT against Fzd10,inactive: -0.626
9,GGCUUAAAAUAAAAGUGCCTT against Nans,inactive: -0.502
10,GCAGCUAGUCUUUUAGGUATT against Nasp,inactive: 0.759
11,CCUGGUAUGCCAAACUUGATT against Ppp2r4,inactive: 0.828
12,GGUUCUGGAAGUCUAAGAATT against Zmynd11,inactive: 1.63
13,GGCAAUACGUAACAUGCCATT against Slc6a4,inactive: 1.13
14,GGGUCAUUGCUUAGAAACATT against Tcta,inactive: -1.85
15,GGUGAAAUACGAUUAUGAUTT against Galnt12,inactive: 0.806
16,GGACAAGGCCACUUAAAUCTT against Hoxc8,inactive: -0.314
17,CCCAUAAUCUCCGAUAUCATT against Hsf1,inactive: 1.28
18,GGGCAUCCUAUACAAGAAGTT against B230113C15Rik,inactive: 1.39
19,GGCUCACAUCUCCUUACAUTT against Klrg1,inactive: -0.024
20,GCUGAAAAACAAGACUUCGTT against Gabrg1,inactive: 0.431
21,GCACGUACCAGUAUCCAGATT against Dnase1l2,inactive: 0.813
22,GCAGCUAAUACAAACCUUATT against A630086M08Rik,inactive: -0.371
23,CCGGUUAUAGCGAACAUUUTT against 2900057D21Rik,inactive: -1.51
24,GGAGUCUGAAGAAUACUCUTT against 4732416F18,inactive: -1.16
25,GGAACCUACCUUUGACCCATT against Tbc1d17,inactive: 0.444
26,GGAUCUCUGGGAAAUCUGCTT against Tap2,inactive: 2.46

row,Sequence,z-score
1,GGUUAUUCUUCUGGUGGUGTT against Olfr1234,inactive: -1.25
2,GGAGAUGACUCUUUCUGUATT against Olfr301,inactive: 0.833
3,GGCCACAGAGCCAAAGAUUTT against Cdca7,inactive: -1
4,CCGUGGAUACUGCAUGUGATT against Neud4,inactive: 0.458
5,CCACUGAGUUCUUUCUACUTT against Olfr49,inactive: -0.879
6,GCCUUUCCUAGACUAUUACTT against Dyt1,inactive: 0.577
7,GGGUUCAAUAACCACAUCATT against BC017545,inactive: 0.165
8,GGAACAAAUCGCUCUGUUGTT against Olfr1314,inactive: 0.647
9,GGCGCAACGAAUAAAAAUATT against D630023F18Rik,inactive: 0.559
10,CGAAAACAGUACGAUGCUUTT against Dnajb11,inactive: -0.663
11,GGCCUAUAUUGAUGAUUUUTT against 4930503L19Rik,inactive: 0.037
12,GGAUAAAUGGUACAUUCAGTT against 2010305A19Rik,inactive: -1.27
13,CCAGUGUUUGACUUGACCATT against Dpysl3,inactive: 0.23
14,GCCAUGUACGCAAAAUAGUTT against 2600001B17Rik,inactive: 1.19
15,CCAUCAUACGAUGAUCUUATT against Pmaip1,inactive: -0.0704
16,GGGCAGUUUUCUCUAUAGGTT against 1110034O07Rik,inactive: 0.236
17,CGAUGAUCCUUACCUCAUATT against 2810422B04Rik,inactive: -1.05
18,CGAUUACUGAACACUAUAUTT against Metap1,inactive: 0.998
19,GGAAGUGCCACCUGUAUUATT against A630005A06Rik,inactive: -0.934
20,GGAAAAGGAGGAGAGUUAUTT against 4921504I05Rik,inactive: 0.668
21,GCCAAGCAUUGGAACCAUGTT against 1700112C13Rik,inactive: -0.0624
22,GCAUCACUUGGGUGGACAATT against Olfr1280,inactive: 2.21
23,GGAAGAUCAAAAGGUCAUUTT against Mybl2,inactive: 1.29
24,GGCAAACCAGGAAAAGGUCTT against Abhd2,inactive: -0.623
25,GGCUUCAUGAUGUCCUGCATT against Cdk5,inactive: -1.36

# Some of the entries so far, as tab-separated lines.
row	Sequence	z-score
5	GGGCAUAUUCACUUUAAAATT against 1200002N14Rik	inactive: -0.264
6	GGCCAGGAAAGAUUUCGAATT against Rab1	inactive: -1.3
7	CGGCAGAGCCAGAUAUGAUTT against Zfp98	inactive: -0.884
8	CCCUUUGAACUUUCCACACTT against A430060F13Rik	inactive: -0.202
9	GGGCCUUUAGUCCUCAAAGTT against 1810042K04Rik	inactive: 0.6
